# Results taken from the supplement of paper PMC10849652.
# Protein sequences, listed by entry. Tags and fused reporters are not part of them. Lines headed by an entry give the natural chain unless they say otherwise; changes in a name come on top.
# UniProt P11216: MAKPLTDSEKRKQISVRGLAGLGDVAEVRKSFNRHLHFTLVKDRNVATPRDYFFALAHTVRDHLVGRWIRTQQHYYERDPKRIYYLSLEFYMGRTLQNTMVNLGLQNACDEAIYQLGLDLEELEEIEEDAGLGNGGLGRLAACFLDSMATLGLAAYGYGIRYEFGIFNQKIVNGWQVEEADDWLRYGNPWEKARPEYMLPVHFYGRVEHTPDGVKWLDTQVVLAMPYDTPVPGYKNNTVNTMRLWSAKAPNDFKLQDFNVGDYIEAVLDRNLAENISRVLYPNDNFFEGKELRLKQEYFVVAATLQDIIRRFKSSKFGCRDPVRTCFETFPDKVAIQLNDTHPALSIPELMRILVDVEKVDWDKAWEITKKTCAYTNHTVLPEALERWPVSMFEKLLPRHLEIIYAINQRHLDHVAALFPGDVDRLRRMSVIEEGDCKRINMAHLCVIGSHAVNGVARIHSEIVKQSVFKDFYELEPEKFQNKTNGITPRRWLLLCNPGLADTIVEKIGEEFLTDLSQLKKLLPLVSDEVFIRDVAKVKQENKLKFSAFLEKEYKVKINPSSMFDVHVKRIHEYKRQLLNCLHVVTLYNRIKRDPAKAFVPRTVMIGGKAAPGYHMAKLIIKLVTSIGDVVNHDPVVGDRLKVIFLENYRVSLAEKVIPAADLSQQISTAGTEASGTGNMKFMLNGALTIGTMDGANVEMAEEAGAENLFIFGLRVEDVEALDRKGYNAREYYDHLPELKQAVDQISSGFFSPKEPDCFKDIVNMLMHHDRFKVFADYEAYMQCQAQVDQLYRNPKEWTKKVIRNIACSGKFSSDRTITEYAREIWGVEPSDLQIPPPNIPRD
# UniProt P51149, whole entry, looked up: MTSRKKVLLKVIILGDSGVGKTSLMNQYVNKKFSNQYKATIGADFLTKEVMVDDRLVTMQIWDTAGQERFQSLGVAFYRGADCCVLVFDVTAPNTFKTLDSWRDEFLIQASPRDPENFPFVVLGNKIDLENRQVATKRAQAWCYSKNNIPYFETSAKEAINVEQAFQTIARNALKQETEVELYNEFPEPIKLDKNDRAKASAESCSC
# UniProt Q13636: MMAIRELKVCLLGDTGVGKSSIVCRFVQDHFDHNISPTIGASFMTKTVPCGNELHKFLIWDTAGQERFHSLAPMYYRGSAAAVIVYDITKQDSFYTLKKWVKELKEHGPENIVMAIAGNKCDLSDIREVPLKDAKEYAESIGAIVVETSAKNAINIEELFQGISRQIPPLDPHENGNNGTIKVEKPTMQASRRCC
# UniProt Q9BRP8: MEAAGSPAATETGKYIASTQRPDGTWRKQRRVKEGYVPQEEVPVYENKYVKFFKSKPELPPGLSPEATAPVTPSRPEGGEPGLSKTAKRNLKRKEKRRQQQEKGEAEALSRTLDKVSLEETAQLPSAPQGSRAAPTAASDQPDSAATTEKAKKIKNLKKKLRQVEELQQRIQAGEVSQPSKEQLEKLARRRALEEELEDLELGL
# UniProt P06737: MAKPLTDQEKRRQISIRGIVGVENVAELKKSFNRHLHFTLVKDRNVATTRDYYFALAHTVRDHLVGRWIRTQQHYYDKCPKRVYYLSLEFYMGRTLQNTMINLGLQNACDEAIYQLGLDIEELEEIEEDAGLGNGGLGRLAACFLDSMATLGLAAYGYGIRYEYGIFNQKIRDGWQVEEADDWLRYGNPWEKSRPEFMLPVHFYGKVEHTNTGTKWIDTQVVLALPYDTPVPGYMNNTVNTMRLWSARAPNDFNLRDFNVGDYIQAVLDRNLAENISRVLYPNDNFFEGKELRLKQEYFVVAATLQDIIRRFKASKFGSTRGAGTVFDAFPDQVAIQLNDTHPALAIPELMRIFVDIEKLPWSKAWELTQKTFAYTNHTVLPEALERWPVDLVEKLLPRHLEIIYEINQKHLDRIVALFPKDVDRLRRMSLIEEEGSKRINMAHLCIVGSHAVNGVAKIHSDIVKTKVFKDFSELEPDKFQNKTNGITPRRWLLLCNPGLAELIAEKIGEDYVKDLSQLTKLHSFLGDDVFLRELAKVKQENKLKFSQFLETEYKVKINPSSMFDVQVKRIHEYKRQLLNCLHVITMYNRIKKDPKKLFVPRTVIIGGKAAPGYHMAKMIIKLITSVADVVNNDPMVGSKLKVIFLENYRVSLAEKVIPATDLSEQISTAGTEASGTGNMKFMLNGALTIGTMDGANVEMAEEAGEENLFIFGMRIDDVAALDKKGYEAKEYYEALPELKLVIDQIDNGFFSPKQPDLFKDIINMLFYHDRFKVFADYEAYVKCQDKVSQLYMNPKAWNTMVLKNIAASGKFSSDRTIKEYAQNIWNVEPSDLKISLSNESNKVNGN
# UniProt Q9NXS2: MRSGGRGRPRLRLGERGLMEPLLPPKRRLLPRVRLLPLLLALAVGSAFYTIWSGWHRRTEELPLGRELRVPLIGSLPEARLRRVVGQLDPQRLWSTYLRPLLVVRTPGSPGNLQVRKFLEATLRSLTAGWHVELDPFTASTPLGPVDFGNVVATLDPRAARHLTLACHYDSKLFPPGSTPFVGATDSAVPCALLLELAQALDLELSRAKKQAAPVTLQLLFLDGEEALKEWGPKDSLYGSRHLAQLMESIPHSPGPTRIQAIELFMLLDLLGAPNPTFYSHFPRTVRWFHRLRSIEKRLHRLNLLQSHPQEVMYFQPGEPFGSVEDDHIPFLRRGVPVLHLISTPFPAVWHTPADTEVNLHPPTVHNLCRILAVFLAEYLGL
# UniProt Q9ULC3: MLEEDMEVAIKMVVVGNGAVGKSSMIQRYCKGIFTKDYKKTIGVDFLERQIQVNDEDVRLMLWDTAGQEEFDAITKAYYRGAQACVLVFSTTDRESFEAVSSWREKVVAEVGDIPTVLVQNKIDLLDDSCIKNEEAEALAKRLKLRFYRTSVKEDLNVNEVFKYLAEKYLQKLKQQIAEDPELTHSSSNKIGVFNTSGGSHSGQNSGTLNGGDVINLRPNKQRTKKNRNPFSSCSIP
# UniProt Q9H5N1: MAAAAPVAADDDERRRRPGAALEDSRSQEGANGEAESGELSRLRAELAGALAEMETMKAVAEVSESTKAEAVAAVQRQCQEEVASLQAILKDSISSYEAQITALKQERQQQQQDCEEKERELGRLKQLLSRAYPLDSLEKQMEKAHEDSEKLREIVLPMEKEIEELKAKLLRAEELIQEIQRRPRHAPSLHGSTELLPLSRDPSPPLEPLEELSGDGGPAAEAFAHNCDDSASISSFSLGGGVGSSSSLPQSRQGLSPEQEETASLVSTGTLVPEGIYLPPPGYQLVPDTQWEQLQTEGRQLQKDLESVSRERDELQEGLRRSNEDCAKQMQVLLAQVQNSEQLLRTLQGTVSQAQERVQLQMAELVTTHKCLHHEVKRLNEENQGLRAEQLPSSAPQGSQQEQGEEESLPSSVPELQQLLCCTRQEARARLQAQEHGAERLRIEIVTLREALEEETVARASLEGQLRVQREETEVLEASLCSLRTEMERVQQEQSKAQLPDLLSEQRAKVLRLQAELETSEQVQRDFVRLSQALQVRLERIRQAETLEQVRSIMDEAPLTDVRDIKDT
# UniProt Q9NR77: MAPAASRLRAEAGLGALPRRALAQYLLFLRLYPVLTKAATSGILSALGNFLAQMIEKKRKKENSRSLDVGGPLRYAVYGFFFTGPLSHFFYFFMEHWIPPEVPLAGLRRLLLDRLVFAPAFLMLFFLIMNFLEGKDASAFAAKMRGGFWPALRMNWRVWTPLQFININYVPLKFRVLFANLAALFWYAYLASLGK
# UniProt P43487, whole entry, looked up: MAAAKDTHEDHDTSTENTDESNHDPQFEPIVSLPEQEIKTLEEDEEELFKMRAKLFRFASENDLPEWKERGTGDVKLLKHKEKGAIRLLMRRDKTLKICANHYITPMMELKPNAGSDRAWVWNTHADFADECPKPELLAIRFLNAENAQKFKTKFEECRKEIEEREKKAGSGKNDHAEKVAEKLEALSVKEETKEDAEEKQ
# UniProt Q9Y3P9: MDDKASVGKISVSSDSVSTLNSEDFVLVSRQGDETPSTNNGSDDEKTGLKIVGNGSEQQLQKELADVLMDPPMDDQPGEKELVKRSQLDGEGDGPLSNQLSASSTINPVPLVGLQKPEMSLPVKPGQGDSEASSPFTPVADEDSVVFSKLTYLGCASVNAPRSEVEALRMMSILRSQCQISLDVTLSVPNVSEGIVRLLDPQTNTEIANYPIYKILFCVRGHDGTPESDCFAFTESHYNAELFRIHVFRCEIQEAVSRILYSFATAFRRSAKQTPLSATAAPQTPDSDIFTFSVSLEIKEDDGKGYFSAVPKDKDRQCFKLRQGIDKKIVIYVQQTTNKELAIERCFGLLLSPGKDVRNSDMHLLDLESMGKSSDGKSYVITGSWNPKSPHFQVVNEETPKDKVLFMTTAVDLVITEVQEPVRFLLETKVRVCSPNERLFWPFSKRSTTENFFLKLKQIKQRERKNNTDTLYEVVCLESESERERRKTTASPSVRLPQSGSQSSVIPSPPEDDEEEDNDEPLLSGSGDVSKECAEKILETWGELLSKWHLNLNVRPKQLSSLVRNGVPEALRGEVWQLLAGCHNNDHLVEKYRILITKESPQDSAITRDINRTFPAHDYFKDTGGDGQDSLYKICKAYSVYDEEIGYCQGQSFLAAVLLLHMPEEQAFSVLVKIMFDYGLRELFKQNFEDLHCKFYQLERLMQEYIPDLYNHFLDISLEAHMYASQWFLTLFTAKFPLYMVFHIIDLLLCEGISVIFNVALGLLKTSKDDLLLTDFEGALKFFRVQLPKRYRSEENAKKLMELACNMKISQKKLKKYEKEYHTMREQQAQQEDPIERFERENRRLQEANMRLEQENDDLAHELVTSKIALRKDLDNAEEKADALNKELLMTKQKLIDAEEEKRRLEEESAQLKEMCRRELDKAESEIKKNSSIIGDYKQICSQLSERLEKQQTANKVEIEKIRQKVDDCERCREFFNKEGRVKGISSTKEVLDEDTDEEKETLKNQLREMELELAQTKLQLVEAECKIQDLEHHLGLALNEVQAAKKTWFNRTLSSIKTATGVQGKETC
# UniProt Q96I23: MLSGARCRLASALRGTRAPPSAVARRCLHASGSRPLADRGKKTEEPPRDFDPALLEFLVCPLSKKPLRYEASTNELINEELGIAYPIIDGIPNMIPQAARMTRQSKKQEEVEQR
# UniProt Q9P0K7: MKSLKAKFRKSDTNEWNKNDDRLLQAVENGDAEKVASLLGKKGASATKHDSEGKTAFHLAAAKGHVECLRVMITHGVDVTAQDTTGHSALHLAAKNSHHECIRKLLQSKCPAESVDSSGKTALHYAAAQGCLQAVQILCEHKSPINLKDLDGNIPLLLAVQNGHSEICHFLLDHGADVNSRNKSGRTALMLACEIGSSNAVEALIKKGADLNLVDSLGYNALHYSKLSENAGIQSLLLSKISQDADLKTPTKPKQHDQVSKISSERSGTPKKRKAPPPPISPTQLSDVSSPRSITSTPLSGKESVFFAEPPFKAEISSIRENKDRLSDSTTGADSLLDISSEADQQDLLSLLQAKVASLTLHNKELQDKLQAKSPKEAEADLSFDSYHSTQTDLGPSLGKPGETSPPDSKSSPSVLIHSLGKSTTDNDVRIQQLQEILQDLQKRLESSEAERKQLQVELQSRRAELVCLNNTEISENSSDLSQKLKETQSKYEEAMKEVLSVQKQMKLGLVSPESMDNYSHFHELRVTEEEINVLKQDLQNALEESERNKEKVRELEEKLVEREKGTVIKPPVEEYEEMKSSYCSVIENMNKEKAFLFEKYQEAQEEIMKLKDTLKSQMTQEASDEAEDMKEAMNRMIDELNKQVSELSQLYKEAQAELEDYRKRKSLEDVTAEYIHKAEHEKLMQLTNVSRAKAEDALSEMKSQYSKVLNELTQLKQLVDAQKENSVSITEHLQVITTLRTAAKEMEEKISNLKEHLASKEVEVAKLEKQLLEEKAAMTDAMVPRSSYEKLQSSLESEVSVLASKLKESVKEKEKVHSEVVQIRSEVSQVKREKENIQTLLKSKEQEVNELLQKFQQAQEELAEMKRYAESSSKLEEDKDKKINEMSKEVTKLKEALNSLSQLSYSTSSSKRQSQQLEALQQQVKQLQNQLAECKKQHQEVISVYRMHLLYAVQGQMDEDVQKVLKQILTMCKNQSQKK
# UniProt Q9BXR0: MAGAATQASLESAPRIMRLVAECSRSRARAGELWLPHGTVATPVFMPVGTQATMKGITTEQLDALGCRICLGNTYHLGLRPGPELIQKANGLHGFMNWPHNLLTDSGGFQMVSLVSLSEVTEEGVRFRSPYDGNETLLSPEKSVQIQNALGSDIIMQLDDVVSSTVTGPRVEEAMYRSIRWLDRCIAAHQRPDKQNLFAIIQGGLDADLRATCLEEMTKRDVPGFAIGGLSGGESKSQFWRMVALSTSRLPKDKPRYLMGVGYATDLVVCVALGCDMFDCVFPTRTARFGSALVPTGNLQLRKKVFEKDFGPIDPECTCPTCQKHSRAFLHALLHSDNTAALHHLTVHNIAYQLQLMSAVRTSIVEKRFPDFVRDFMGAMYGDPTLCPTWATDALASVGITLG
# The list shows a part of the results.
# Experiments:
# Experiment in all cases: log2 fold change, soluble protein after heating vs DMSO (PISA); higher = thermal stabilisation; K562 lysate, 10 uM; active = over 0.2 and 3.5 SD of the protein, either way, in both replicates (recomputed)
# erlotinib = compound: C#Cc1cccc(Nc2ncnc3cc(OCCOC)c(OCCOC)cc23)c1 [erlotinib]
# How it was run: (§1)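 Pellets of K562 cells were dounce-homogenised in PBS pH 7.4 with 1 mM MgCl2, and the crude extract was held at 1 mg/mL protein for a 30 min treatment with 10 μM compound. Aliquots were heated for 3 min over 48°C-58°C and pooled before NP-40 was added to 0.5% at 4°C. The supernatant from 21,000xg for 90 min was quantified by TMTpro 16plex LC-MS/MS with channel sums equalised. Values are reported from duplicates as log-two fold change in thermal stability relative to solvent controls.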
# [1] = compound: C/C(=N\NC(=O)C1=CC(=CC=C1)S(=O)(=O)N2CCOCC2)/C3=C(C=CC(=C3)Cl)O
# How it was run: as §1
# [2] = compound: C1=CC(=CC=C1C2=NC3=C(N2)C=C(C=C3)C(=O)N)OC4=CC=C(C=C4)Cl
# How it was run: as §1
# [3] = compound: C1=CC2=C(C=CC(=C2)/C=C\3/C(=O)NC(=NCC4=CC=CS4)S3)N=C1
# How it was run: as §1
# [4] = compound: C1=CC2=NC=CN=C2C=C1/C=C/3\C(=O)NC(=O)S3
# How it was run: as §1
# [5] = compound: C1=CC=C(C=C1)C2=NC(=C(N2)C3=CC=NC=C3)C4=CC(=C(C=C4)Cl)O
# How it was run: as §1
# [6] = compound: C1=CC=C2C(=C1)C3=NNC4=CC=CC(=C43)C2=O
# How it was run: as §1
# [7] = compound: C1CCN(C1)C(=O)NC2=CC=CC(=C2)NC3=NC=C(C(=N3)NCCC4=CN=CN4)Br
# How it was run: as §1
# [8] = compound: C1CN(CCC1(CC2=CC=C(C=C2)Cl)N)C3=NC=NC4=C3C=CN4
# How it was run: as §1
# IRAK-1-4 Inhibitor I = compound: C1COCCN1CCN2C3=CC=CC=C3N=C2NC(=O)C4=CC(=CC=C4)[N+](=O)[O-] [IRAK-1-4 Inhibitor I]
# How it was run: as §1
# ibrutinib = compound: C=CC(=O)N1CCC[C@@H](n2nc(-c3ccc(Oc4ccccc4)cc3)c3c(N)ncnc32)C1 [ibrutinib]
# How it was run: as §1
# [9] = compound: CC(=O)c1cnc2ccc(-c3cc(Cl)c(O)c(Cl)c3)nc2c1N[C@H]1CC[C@H](CN(C)C)CC1
# How it was run: as §1
# ralimetinib = compound: CC(C)(C)Cn1c(N)nc2ccc(-c3[nH]c(C(C)(C)C)nc3-c3ccc(F)cc3)nc21 [ralimetinib]
# How it was run: as §1
# [10] = compound: CC(C)(O)CC(=O)NCCn1ccc2ncnc(Nc3ccc(Oc4cccc(C(F)(F)F)c4)c(Cl)c3)c21
# How it was run: as §1
# [11] = compound: CC(C)C1=C2N=C(C=C(N2N=C1)NCC3=CC=CC=C3)NCCCCCCN
# How it was run: as §1
# [12] = compound: CC1=C(C(CC(=O)N1)C2=CC=C(C=C2)C(F)(F)F)C(=O)NC3=C(C=C4C(=C3)C=NN4)F
# How it was run: as §1
# [13] = compound: CC1=C(C2=C(C=C1)C(=O)C3=CC=CC=C3N2CCCN)C
# How it was run: as §1
# [14] = compound: CC1=C(C=C(C=C1)NC(=O)C2=CC(=CC=C2)C(C)(C)C#N)NC3=CC4=C(C=C3)N=CN(C4=O)C
# How it was run: as §1
# [15] = compound: CC1=C(C=C(C=C1)NC(=O)C2=CC(=CC=C2)N(C)C)NC(=O)C3=CC=C(C=C3)O
# How it was run: as §1
# [16] = compound: CC1=CC=C(C=C1)SC2=C3C=C(SC3=CN=C2)C(=O)N
# How it was run: as §1
Target,log2 fold change (erlotinib),log2 fold change [1],log2 fold change [2],log2 fold change [3],log2 fold change [4],log2 fold change [5],log2 fold change [6],log2 fold change [7],log2 fold change [8],log2 fold change (IRAK-1-4 Inhibitor I),log2 fold change (ibrutinib),log2 fold change [9],log2 fold change (ralimetinib),log2 fold change [10],log2 fold change [11],log2 fold change [12],log2 fold change [13],log2 fold change [14],log2 fold change [15],log2 fold change [16]
PYGB (UniProt P11216),inactive: -0.002,inactive: 0.021,inactive: -0.01,inactive: 0.023,inactive: -0.008,inactive: -0.03,inactive: 0.008,inactive: 0.031,inactive: -0.016,inactive: -0.021,inactive: -0.004,inactive: 0.004,inactive: 0.032,inactive: 0.005,inactive: -0.008,inactive: 0.005,inactive: 0.018,inactive: 0.014,inactive: 0.014,inactive: -0.017
RAB7A (UniProt P51149),inactive: 0,inactive: -0.029,inactive: 0.032,inactive: -0.014,inactive: -0.009,inactive: -0.006,inactive: 0.006,inactive: 0.033,inactive: 0.027,inactive: 0.025,inactive: -0.04,inactive: 0.012,inactive: -0.031,inactive: -0.052,inactive: -0.014,inactive: -0.009,inactive: -0.002,inactive: -0.018,inactive: 0.001,inactive: 0.004
RAB31 (UniProt Q13636),inactive: 0.001,inactive: 0.036,inactive: 0.027,inactive: 0.039,inactive: 0.027,inactive: 0.013,inactive: -0.059,inactive: -0.047,inactive: -0.02,inactive: -0.015,inactive: 0.009,inactive: -0.052,inactive: 0.02,inactive: -0.028,inactive: 0.003,inactive: -0.043,inactive: 0.005,inactive: 0.025,inactive: -0.014,inactive: 0.008
PYM1 (UniProt Q9BRP8),inactive: -0.04,inactive: -0.002,inactive: 0.003,inactive: 0,inactive: -0.033,inactive: 0.021,inactive: -0.005,inactive: -0.08,inactive: -0.01,inactive: 0.057,inactive: 0.036,inactive: -0.003,inactive: -0.003,inactive: -0.028,inactive: 0.017,inactive: -0.008,inactive: 0.003,inactive: 0.045,inactive: -0.028,inactive: 0.007
PYGL (UniProt P06737),inactive: -0.03,inactive: 0.056,inactive: -0.012,inactive: -0.027,inactive: -0.011,inactive: -0.001,inactive: 0.086,inactive: 0.007,inactive: 0.015,inactive: -0.002,inactive: -0.013,inactive: 0.014,inactive: 0.025,inactive: 0.031,inactive: -0.01,inactive: -0.018,inactive: 0.035,inactive: 0.013,inactive: -0.011,inactive: 0.016
RAD50 isoform 2 (UniProt Q92878),inactive: -0.009,inactive: -0.007,inactive: 0.019,inactive: 0.006,inactive: -0.014,inactive: -0.023,inactive: -0.039,inactive: 0.005,inactive: -0.01,inactive: -0.054,inactive: 0.002,inactive: -0.01,inactive: 0.01,inactive: 0.018,inactive: 0,inactive: -0.001,inactive: 0.03,inactive: 0,inactive: 0.017,inactive: -0.006
QPCTL (UniProt Q9NXS2),inactive: -0.03,inactive: -0.164,inactive: -0.066,inactive: 0.058,inactive: -0.003,inactive: 0.01,inactive: 0.069,inactive: -0.047,inactive: 0.006,inactive: -0.042,inactive: 0.097,inactive: 0.031,inactive: 0.027,inactive: -0.023,inactive: -0.025,inactive: -0.076,inactive: -0.007,inactive: 0.075,inactive: -0.014,inactive: 0.056
RAB23 (UniProt Q9ULC3),inactive: -0.032,inactive: 0.016,inactive: 0.057,inactive: -0.027,inactive: -0.046,inactive: -0.024,inactive: -0.026,inactive: -0.001,inactive: 0.009,inactive: 0.025,inactive: -0.022,inactive: 0.016,inactive: 0.004,inactive: -0.054,inactive: -0.019,inactive: 0.018,inactive: 0.065,inactive: -0.04,inactive: 0.091,inactive: -0.006
RABEP2 (UniProt Q9H5N1),inactive: 0.05,inactive: -0.011,inactive: 0.029,inactive: -0.045,inactive: -0.04,inactive: 0.003,inactive: -0.074,inactive: 0.034,inactive: -0.006,inactive: -0.001,inactive: -0.013,inactive: 0.022,inactive: 0.008,inactive: 0.023,inactive: 0.003,inactive: -0.027,inactive: -0.003,inactive: 0.046,inactive: 0.007,inactive: -0.014
PXMP2 (UniProt Q9NR77),inactive: 0,inactive: 0.028,inactive: -0.012,inactive: -0.023,inactive: -0.004,inactive: -0.094,inactive: 0.035,inactive: -0.023,inactive: 0.002,inactive: 0.021,inactive: -0.018,inactive: -0.006,inactive: -0.003,inactive: 0.019,inactive: -0.004,inactive: 0.015,inactive: -0.029,inactive: 0.04,inactive: -0.029,inactive: 0
RANBP1 (UniProt P43487),inactive: -0.004,inactive: -0.02,inactive: -0.012,inactive: -0.026,inactive: 0.014,inactive: 0.009,inactive: 0.031,inactive: 0.021,inactive: 0.004,inactive: -0.002,inactive: -0.045,inactive: 0.022,inactive: -0.03,inactive: -0.004,inactive: 0.009,inactive: -0.031,inactive: 0.02,inactive: 0.01,inactive: -0.03,inactive: 0
RABGAP1 (UniProt Q9Y3P9),inactive: 0.003,inactive: 0.048,inactive: 0.012,inactive: 0.024,inactive: 0.007,inactive: 0,inactive: -0.018,inactive: 0.017,inactive: -0.03,inactive: 0.008,inactive: -0.007,inactive: -0.005,inactive: 0.012,inactive: -0.013,inactive: -0.026,inactive: -0.016,inactive: -0.014,inactive: 0.003,inactive: 0.019,inactive: -0.028
PYURF (UniProt Q96I23),inactive: -0.019,inactive: 0.113,inactive: 0.117,inactive: 0.056,inactive: 0.087,inactive: -0.09,inactive: -0.108,inactive: 0.035,inactive: 0.07,inactive: -0.086,inactive: 0.189,inactive: -0.026,inactive: -0.005,inactive: 0.079,inactive: 0.016,inactive: 0.058,inactive: -0.05,inactive: 0.084,inactive: 0.012,inactive: -0.026
RAI14 isoform 2 (UniProt Q9P0K7),inactive: 0.015,inactive: 0.006,inactive: -0.007,inactive: 0.004,inactive: 0.001,inactive: 0.021,inactive: 0.02,inactive: 0,inactive: -0.018,inactive: -0.028,inactive: -0.019,inactive: -0.007,inactive: -0.011,inactive: -0.01,inactive: -0.004,inactive: 0.017,inactive: -0.024,inactive: 0.01,inactive: 0.024,inactive: 0.001
QTRT1 (UniProt Q9BXR0),inactive: -0.029,inactive: -0.044,inactive: -0.009,inactive: 0.022,inactive: 0.003,inactive: 0.034,inactive: -0.036,inactive: 0.011,inactive: -0.005,inactive: 0.018,inactive: 0.057,inactive: -0.003,inactive: 0.015,inactive: -0.029,inactive: 0.034,inactive: 0.006,inactive: 0.018,inactive: -0.009,inactive: 0.001,inactive: -0.018
RAF1 isoform 2 (UniProt P04049),inactive: -0.011,inactive: -0.033,inactive: -0.016,inactive: -0.072,inactive: -0.113,inactive: -0.009,inactive: 0.007,inactive: 0.036,inactive: -0.044,inactive: -0.058,inactive: -0.046,inactive: 0.047,inactive: 0.054,inactive: 0.004,inactive: 0.065,inactive: 0.092,inactive: -0.055,active: 0.359,inactive: 0,inactive: 0.027

# Full records as entered above. Values in the order: log2 fold change (erlotinib) | log2 fold change [1] | log2 fold change [2] | log2 fold change [3] | log2 fold change [4] | log2 fold change [5] | log2 fold change [6] | log2 fold change [7] | log2 fold change [8] | log2 fold change (IRAK-1-4 Inhibitor I) | log2 fold change (ibrutinib) | log2 fold change [9] | log2 fold change (ralimetinib) | log2 fold change [10] | log2 fold change [11] | log2 fold change [12] | log2 fold change [13] | log2 fold change [14] | log2 fold change [15] | log2 fold change [16]
# PYM1 (UniProt Q9BRP8) is listed as inactive: -0.04 | inactive: -0.002 | inactive: 0.003 | inactive: 0 | inactive: -0.033 | inactive: 0.021 | inactive: -0.005 | inactive: -0.08 | inactive: -0.01 | inactive: 0.057 | inactive: 0.036 | inactive: -0.003 | inactive: -0.003 | inactive: -0.028 | inactive: 0.017 | inactive: -0.008 | inactive: 0.003 | inactive: 0.045 | inactive: -0.028 | inactive: 0.007
# RAF1 isoform 2 (UniProt P04049) is listed as inactive: -0.011 | inactive: -0.033 | inactive: -0.016 | inactive: -0.072 | inactive: -0.113 | inactive: -0.009 | inactive: 0.007 | inactive: 0.036 | inactive: -0.044 | inactive: -0.058 | inactive: -0.046 | inactive: 0.047 | inactive: 0.054 | inactive: 0.004 | inactive: 0.065 | inactive: 0.092 | inactive: -0.055 | active: 0.359 | inactive: 0 | inactive: 0.027
